Reference: US20170360029A1, “Chemical Agent For Controlling Soil Nematode Which Comprises Macrolide-Type Compound” (Maruwa Biochemical Co., Ltd., priority 2012, published 2017)
At least one structure is not confirmed: it was looked up by name or label, or the drawing left a doubt.

Tested on: sweet potato root-knot nematodes
Experiment: Nematode Control Test Example 1: emulsions mixed with infested soil, cherry tomato pot test
Assay type: in vivo
Settings: concentration of active ingredient in the soil of 0.3 ppm
Protocol: Each of abamectin 7.5% emulsion from NO. […] One liter of Pleistocene volcanic ash soil in which sweet potato root-knot nematodes had proliferated (the mean of initial sweet potato root-knot nematode density in the fourth-repeated cultivations: 235 nematodes/20 g of soil) was placed in a polyethylene bag and 30 ml of 10 ppm liquid of each chemical agent was mixed therewith while sprayed. The soil mixed with the chemical agent was filled in a pot with a surface area of 162 cm^2. A group where 1 L of soil was mixed and treated with 200 mg of a commercially available organophosphorus-based nematocide fosthiazate 1.5% granule (Ishihara Nemathorin Ace granule, a product from Ishihara Sangyo Kaisha, Ltd.) as a control chemical agent and a group with no treatment were set up. After the treatment with the chemical agent, three stocks of cherry tomato (variety Regina nursery plant with three true leaves, a product from Takii seed Co., Ltcd.) were planted. The test was repeated twice and cultivation management was conducted in a greenhouse. After six weeks, the weight of aerial parts and root-knot parasitism level were investigated.
In the test below, evaluation criteria for the root-knot parasitism level are as follows:
The evaluation was conducted using additional intermediate levels of 0.5 between each parasitism levels below at the investigation. […]

**Q.** For CO/N=C1\C[C@]2(C[C@@H]3C[C@@H](C/C=C(\C)C[C@@H](C)/C=C/C=C4\CO[C@@H]5[C@H](O)C(C)=C[C@@H](C(=O)O3)[C@]45O)O2)O[C@H](/C(C)=C/C(C)C)[C@H]1C [MOX, moxidectin], which “nematode control effect (in words)” value is on record?
**A.** the effect was noticed
